Measurements reported in PubChem BioAssay AID652243 (Drosophila RNAi Screening Center, 2013).
Purpose: 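Fly regulators of androgen-dependent reporter output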 (primary screen). System: Drosophila S2R+ cells. Reagent: long dsRNA against Drosophila genes. Duration: 72 h (48 h, then 24 h hormone). Treatment: synthetic androgen R1881 at 10 nM for 24 h. Detection: 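Per-well raw luminescence of the androgen-driven firefly reporter and of the Renilla control, two replicates each, without normalisation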. Direction: firefly reporter light: higher = more light from androgen-responsive reporter; Renilla control light: higher = more constitutive control signal (cell number, transfection). Hit rule: 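Across duplicate plates, a knock-down whose log firefly/Renilla ratio shifted a set fold down or up from the GFP/LacZ control mean was a hit; the downward cut appears as both 1.5 and 3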. Calls: active = hit: reporter lowered or raised; inactive = no hit.
The screen tested about 24,000 reagents; this is a random part of those that have a named target and a result. In the full data, 246 (1%) were called active. 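Plates not normalised; calls are printed but the firefly/Renilla ratio behind them is not deposited; fold cut for lowering reported inconsistently.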 The raw values are shown without normalisation. Not given: the amount of reagent.

target gene | dsRNA | firefly reporter light, replicate 1 | firefly reporter light, replicate 2 | Renilla control light, replicate 1 | Renilla control light, replicate 2 | Outcome
Pgm1 | DRSC10490 | 35778 | 13936 | 2.61e5 | 1.99e5 | inactive
Pgm1 | DRSC28517 | 4.79e5 | 8.31e5 | 6.61e5 | 1.27e6 | inactive
CG41527 (retired record) | DRSC38605 | 9.40e5 | 6.71e5 | 1.55e6 | 1.36e6 | inactive
RhoGAP68F | DRSC10717 | 6.02e5 | 5.73e5 | 1.08e6 | 1.61e6 | inactive
Ect3 | DRSC15462 | 1.23e5 | 2.21e5 | 1.94e6 | 2.30e6 | inactive
Ect3 | DRSC25392 | 5.23e5 | 5.01e5 | 5.12e5 | 6.13e5 | inactive
Syn | DRSC16876 | 1.13e5 | 1.07e5 | 1.89e6 | 1.79e6 | inactive
Syn | DRSC26448 | 2.32e5 | 1.56e5 | 4.82e5 | 4.57e5 | inactive
FMRFaR | DRSC08555 | 1.33e5 | 1.79e5 | 1.49e6 | 1.64e6 | inactive
CG10949 | DRSC02112 | 7.96e5 | 7.00e5 | 2.65e6 | 3.44e6 | inactive
CG10949 | DRSC27310 | 3.49e5 | 2.14e5 | 3.95e5 | 3.38e5 | inactive
hyx | DRSC14462 | 57212 | 53926 | 2.95e5 | 3.75e5 | inactive
nvy | DRSC04705 | 5.02e5 | 3.72e5 | 2.64e6 | 2.16e6 | inactive
Vap33 | DRSC18384 | 1.29e5 | 90719 | 1.24e6 | 7.48e5 | inactive
CG7101 | DRSC20023 | 1.26e5 | 1.40e5 | 1.54e6 | 1.38e6 | inactive
CG7101 | DRSC22845 | 7.82e5 | 1.17e6 | 1.13e6 | 1.45e6 | inactive
Chs2 | DRSC11830 | 2.31e5 | 2.42e5 | 2.57e6 | 2.82e6 | inactive
Sox21b | DRSC23005 | 8.86e5 | 1.17e6 | 8.21e5 | 9.46e5 | inactive
Sox21b | DRSC25803 | 3.88e5 | 4.79e5 | 7.30e5 | 6.35e5 | inactive
CG11674 | DRSC19414 | 98361 | 1.16e5 | 4.51e5 | 3.41e5 | inactive
Cyp313a5 | DRSC16628 | 1.61e5 | 1.92e5 | 2.87e6 | 2.80e6 | inactive
lncRNA:iab4 | DRSC22331 | 1.07e6 | 8.84e5 | 1.42e6 | 1.17e6 | inactive
lncRNA:iab4 | DRSC26703 | 3.60e5 | 2.92e5 | 7.22e5 | 6.68e5 | inactive
GstE14 | DRSC06881 | 3.97e5 | 2.88e5 | 1.43e6 | 2.08e6 | inactive
GstE14 | DRSC26779 | 2.92e5 | 2.24e5 | 5.08e5 | 2.95e5 | inactive
